Data on six molecules can be found in publication PMC9446545.

By UniProt entry, the sequences of proteins in these tests, tags left out.
UniProt Q91ZW3: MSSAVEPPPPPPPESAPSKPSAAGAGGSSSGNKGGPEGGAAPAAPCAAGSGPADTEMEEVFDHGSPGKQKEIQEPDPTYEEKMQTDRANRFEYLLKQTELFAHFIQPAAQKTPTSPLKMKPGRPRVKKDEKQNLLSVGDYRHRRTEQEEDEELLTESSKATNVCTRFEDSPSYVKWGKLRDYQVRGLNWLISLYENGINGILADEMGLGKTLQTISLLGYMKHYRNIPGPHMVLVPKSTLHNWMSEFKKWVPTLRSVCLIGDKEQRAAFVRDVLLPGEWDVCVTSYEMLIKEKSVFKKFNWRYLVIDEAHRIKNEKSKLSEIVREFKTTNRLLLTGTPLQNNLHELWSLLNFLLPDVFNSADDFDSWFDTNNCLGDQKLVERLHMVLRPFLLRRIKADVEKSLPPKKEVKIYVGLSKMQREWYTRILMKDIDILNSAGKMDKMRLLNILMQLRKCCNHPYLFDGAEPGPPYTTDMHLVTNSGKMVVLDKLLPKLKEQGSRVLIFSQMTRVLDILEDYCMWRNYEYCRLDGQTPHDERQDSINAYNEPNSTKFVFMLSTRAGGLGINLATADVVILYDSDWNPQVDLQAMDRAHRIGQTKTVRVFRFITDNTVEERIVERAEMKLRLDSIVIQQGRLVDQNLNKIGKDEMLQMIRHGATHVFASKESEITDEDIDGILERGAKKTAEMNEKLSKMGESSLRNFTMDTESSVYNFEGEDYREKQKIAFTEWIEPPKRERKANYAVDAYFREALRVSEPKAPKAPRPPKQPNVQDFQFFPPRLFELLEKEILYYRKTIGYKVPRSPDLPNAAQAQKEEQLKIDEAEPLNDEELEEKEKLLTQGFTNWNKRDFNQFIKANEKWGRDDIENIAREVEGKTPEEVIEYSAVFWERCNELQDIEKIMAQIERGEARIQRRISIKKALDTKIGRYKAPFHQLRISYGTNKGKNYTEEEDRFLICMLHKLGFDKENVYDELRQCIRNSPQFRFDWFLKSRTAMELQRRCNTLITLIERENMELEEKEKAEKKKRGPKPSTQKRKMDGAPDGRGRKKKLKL
UniProt Q6PDQ2: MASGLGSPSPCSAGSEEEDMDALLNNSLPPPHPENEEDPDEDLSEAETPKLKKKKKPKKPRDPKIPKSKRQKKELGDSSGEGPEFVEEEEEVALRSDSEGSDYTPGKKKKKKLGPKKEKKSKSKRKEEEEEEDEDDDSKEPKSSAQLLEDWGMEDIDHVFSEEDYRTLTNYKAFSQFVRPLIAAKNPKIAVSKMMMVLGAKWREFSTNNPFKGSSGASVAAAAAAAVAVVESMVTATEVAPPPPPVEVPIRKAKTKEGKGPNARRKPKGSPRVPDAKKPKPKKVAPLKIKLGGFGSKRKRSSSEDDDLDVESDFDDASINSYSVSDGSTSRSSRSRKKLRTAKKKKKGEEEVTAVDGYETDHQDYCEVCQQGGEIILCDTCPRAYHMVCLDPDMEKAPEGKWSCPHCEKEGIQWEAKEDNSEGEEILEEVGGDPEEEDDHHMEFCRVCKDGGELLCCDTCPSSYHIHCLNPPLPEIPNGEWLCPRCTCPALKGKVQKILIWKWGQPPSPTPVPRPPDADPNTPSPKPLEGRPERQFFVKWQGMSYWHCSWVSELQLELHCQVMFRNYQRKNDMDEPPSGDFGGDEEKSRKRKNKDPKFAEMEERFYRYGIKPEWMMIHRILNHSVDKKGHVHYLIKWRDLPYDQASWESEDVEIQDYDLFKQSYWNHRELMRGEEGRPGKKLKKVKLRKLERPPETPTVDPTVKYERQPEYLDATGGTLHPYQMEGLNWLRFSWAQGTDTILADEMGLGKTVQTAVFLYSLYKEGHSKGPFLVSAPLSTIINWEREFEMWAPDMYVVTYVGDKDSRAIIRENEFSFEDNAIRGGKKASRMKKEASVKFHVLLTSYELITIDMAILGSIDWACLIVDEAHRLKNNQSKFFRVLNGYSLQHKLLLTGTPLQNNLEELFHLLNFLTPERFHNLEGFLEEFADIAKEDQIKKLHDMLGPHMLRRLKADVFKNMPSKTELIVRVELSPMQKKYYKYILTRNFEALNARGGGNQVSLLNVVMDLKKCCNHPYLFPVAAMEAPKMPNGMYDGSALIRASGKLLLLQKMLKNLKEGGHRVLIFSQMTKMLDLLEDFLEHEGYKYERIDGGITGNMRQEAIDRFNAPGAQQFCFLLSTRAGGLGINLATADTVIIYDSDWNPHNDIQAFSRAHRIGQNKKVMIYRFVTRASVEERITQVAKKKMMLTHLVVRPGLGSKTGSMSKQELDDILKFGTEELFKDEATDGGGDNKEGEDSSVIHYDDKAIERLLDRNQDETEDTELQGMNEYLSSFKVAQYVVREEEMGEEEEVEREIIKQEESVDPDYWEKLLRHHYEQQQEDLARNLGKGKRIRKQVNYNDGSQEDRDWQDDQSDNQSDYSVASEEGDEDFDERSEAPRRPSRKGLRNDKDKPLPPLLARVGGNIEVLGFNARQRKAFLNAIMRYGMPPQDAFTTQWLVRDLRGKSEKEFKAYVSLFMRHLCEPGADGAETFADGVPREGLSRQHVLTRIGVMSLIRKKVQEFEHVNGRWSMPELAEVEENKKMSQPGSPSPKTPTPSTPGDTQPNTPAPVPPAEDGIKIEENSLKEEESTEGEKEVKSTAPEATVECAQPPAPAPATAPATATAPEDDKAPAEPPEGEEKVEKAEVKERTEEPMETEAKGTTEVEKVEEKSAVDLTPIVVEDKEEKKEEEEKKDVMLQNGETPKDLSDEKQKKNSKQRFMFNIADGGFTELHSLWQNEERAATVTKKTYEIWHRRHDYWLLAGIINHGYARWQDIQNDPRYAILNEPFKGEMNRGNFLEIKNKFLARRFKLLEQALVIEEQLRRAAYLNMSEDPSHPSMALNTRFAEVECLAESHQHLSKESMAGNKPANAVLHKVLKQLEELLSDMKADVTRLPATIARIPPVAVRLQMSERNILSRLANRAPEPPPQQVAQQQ
UniProt P70288: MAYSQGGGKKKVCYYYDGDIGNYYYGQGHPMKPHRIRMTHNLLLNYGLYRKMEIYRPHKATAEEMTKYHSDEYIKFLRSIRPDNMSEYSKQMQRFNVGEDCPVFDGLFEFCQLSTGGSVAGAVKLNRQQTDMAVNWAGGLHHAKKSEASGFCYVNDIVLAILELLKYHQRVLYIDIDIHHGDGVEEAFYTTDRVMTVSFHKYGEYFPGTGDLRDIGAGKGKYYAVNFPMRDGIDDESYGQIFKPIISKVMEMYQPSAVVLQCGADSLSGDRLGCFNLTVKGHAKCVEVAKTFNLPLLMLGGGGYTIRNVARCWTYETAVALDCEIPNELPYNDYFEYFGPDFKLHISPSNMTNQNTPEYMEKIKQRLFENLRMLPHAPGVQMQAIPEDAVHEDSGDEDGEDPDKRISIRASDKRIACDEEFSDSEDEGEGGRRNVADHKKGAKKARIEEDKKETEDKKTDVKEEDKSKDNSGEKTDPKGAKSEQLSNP
UniProt O09106: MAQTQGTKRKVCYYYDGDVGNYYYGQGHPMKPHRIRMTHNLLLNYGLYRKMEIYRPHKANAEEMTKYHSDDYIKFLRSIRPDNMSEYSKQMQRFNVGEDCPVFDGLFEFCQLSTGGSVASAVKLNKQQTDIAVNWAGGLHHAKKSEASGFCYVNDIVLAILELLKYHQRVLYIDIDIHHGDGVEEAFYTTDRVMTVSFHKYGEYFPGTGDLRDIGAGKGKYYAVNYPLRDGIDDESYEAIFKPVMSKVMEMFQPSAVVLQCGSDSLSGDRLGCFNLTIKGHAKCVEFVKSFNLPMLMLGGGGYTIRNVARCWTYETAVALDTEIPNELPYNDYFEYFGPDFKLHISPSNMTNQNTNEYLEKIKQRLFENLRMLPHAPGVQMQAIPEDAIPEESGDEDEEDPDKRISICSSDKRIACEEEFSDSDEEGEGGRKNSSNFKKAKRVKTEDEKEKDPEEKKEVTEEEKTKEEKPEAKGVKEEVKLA
UniProt Q6P5D8: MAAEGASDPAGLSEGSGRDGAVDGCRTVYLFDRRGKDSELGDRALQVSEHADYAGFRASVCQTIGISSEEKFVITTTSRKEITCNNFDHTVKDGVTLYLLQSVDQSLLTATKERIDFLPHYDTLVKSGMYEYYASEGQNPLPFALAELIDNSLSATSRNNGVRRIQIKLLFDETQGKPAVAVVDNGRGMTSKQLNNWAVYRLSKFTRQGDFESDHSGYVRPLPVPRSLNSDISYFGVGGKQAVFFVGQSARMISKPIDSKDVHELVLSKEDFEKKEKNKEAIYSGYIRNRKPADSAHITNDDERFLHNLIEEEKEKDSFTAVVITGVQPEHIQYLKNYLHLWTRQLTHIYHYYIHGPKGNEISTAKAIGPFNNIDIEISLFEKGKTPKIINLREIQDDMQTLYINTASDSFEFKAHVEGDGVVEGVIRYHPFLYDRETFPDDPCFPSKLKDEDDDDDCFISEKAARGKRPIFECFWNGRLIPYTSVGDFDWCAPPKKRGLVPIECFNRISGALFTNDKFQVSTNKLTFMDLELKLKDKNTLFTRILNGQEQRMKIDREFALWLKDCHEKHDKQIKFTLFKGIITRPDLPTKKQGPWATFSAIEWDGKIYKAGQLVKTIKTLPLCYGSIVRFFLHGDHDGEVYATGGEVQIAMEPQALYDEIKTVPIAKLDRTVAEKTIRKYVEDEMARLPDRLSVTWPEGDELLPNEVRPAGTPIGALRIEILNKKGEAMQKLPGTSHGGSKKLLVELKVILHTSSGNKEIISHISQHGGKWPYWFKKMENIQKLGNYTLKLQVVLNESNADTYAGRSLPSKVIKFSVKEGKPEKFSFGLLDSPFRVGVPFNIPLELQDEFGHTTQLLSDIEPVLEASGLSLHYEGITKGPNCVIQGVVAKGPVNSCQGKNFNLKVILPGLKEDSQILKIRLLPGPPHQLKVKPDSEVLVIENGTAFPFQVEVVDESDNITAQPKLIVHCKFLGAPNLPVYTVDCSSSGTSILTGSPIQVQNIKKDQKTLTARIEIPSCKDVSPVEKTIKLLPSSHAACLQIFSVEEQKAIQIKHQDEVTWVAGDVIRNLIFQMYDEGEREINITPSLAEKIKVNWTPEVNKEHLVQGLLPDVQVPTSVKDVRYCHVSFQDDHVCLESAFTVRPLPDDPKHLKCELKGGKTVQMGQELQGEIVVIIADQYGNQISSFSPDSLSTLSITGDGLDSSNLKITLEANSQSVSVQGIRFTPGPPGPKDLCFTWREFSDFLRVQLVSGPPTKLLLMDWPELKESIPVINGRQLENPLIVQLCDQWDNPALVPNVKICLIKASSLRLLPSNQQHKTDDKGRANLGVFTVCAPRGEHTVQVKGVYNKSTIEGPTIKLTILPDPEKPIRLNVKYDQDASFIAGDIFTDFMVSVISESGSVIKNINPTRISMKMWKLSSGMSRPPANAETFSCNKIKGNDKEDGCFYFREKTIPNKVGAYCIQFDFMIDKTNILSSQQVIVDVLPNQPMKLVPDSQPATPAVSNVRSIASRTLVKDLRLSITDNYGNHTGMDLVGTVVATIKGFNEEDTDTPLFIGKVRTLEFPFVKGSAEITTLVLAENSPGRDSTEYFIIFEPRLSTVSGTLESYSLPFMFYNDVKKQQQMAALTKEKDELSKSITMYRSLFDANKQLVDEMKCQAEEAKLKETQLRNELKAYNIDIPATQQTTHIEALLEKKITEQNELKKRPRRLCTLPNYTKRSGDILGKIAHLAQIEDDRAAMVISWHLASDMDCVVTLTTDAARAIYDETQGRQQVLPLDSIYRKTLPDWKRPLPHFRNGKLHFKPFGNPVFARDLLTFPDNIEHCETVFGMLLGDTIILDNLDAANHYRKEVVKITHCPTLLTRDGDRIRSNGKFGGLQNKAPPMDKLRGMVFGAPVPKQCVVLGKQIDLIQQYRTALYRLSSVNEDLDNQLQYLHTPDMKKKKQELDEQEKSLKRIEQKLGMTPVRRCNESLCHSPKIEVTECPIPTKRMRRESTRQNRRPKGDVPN

This assay addresses T1, ZCWPW1 (endogenous, mouse testes) (mouse (endogenous in mouse testes)) (UniProt Q6IR42).
T1 sequence: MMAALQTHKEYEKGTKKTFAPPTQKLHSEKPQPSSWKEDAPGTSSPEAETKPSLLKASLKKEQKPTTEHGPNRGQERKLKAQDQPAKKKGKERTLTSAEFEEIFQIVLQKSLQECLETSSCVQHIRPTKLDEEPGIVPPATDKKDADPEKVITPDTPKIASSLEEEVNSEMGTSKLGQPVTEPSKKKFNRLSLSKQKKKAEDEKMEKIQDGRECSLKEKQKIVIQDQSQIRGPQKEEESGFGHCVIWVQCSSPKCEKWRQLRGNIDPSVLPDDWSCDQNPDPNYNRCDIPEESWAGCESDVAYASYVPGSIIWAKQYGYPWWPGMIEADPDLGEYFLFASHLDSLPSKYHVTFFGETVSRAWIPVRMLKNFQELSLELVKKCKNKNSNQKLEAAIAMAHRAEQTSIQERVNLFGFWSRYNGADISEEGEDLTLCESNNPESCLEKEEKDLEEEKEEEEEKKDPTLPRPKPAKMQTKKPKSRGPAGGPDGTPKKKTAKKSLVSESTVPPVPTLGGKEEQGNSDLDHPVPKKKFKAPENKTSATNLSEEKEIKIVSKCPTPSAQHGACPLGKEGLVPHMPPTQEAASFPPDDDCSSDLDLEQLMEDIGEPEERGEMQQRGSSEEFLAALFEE
The assay can be described thus: affinity purification with mass spectrometry; RIME: cells of PD13-14 or PD16-PD18 WT mouse testes crosslinked in 1% formaldehyde for 15 min, sonicated chromatin; ZCWPW1 immunoprecipitated with rabbit anti-ZCWPW1 (normal rabbit IgG as control), protein A/G magnetic beads, trypsin digest, LC-MS/MS.

No constants are given. Whether binding was seen depends on the method and setting. In cells and extracts the contact can be indirect. These calls come from enrichment with a bait or labelling near it, and not all partners need be listed.

As to “SMARCA5 (endogenous, mouse testes) (from UniProt Q91ZW3 1-1051)”, the binding entry was “binds”.
The value for “CHD4 (endogenous, mouse testes) (from UniProt Q6PDQ2 1-1915)” was “binds”; that for “HDAC2 (endogenous, mouse testes) (from UniProt P70288 1-488) (enzyme)” was “binds”.
The value for “HDAC1 (endogenous, mouse testes) (from UniProt O09106 1-482) (enzyme)” was “binds”.
Next, “SMCHD1 (endogenous, mouse testes) (from UniProt Q6P5D8 1-2007)”: “binds”.

B1: HDAC6 (endogenous, mouse testes) (enzyme, UniProt Q9Z2V5 1-1149)
chain: MTSTGQDSSTRQRKSRHNPQSPLQESSATLKRGGKKCAVPHSSPNLAEVKKKGKMKKLSQPAEEDLVVGLQGLDLNPETRVPVGTGLVFDEQLNDFHCLWDDSFPESPERLHAIREQLILEGLLGRCVSFQARFAEKEELMLVHSLEYIDLMETTQYMNEGELRVLAETYDSVYLHPNSYSCACLATGSVLRLVDALMGAEIRNGMAVIRPPGHHAQHNLMDGYCMFNHLAVAARYAQKKHRIQRVLIVDWDVHHGQGTQFIFDQDPSVLYFSIHRYEHGRFWPHLKASNWSTIGFGQGQGYTINVPWNQTGMRDADYIAAFLHILLPVASEFQPQLVLVAAGFDALHGDPKGEMAATPAGFAHLTHLLMGLAGGKLILSLEGGYNLRALAKGVSASLHTLLGDPCPMLESCVVPCASAQTSIYCTLEALEPFWEVLERSVETQEEDEVEEAVLEEEEEEGGWEATALPMDTWPLLQNRTGLVYDEKMMSHCNLWDNHHPETPQRILRIMCHLEEVGLAARCLILPARPALDSELLTCHSAEYVEHLRTTEKMKTRDLHREGANFDSIYICPSTFACAKLATGAACRLVEAVLSGEVLNGIAVVRPPGHHAEPNAACGFCFFNSVAVAARHAQIIAGRALRILIVDWDVHHGNGTQHIFEDDPSVLYVSLHRYDRGTFFPMGDEGASSQVGRDAGIGFTVNVPWNGPRMGDADYLAAWHRLVLPIAYEFNPELVLISAGFDAAQGDPLGGCQVTPEGYAHLTHLLMGLAGGRIILILEGGYNLASISESMAACTHSLLGDPPPQLTLLRPPQSGALVSISEVIQVHRKYWRSLRLMKMEDKEECSSSRLVIKKLPPTASPVSAKEMTTPKGKVPEESVRKTIAALPGKESTLGQAKSKMAKAVLAQGQSSEQAAKGTTLDLATSKETVGGATTDLWASAAAPENFPNQTTSVEALGETEPTPPASHTNKQTTGASPLQGVTAQQSLQLGVLSTLELSREAEEAHDSEEGLLGEAAGGQDMNSLMLTQGFGDFNTQDVFYAVTPLSWCPHLMAVCPIPAAGLDVSQPCKTCGTVQENWVCLTCYQVYCSRYVNAHMVCHHEASEHPLVLSCVDLSTWCYVCQAYVHHEDLQDVKNAAHQNKFGEDMPHSH
As to B1, the binding entry is reported as “binds”.
